Measured values taken from PMC11948754.
No constants are given. Whether binding was seen depends on the method and setting. Binding seen in cells or lysates may run through a third protein. Some results given as binding are weak or reduced against the parent protein; the word gives no strength.

Amino acid sequences for entries named in this document (tags omitted).
UniProt Q13042: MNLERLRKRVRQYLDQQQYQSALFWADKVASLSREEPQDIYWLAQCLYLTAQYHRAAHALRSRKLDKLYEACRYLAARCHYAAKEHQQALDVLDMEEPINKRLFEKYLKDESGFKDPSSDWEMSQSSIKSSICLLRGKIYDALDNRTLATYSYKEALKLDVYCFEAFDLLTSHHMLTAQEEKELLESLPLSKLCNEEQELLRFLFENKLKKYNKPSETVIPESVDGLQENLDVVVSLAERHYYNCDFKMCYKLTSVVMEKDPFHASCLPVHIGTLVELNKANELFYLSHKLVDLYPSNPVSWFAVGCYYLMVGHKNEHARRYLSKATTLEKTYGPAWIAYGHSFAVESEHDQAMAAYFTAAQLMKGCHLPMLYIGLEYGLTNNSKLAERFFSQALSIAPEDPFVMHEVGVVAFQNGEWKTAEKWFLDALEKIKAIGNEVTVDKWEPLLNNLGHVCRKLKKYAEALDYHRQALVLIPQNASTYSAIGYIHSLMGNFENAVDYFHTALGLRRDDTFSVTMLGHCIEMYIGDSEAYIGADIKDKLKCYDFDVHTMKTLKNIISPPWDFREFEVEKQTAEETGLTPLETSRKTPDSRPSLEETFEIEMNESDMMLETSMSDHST
UniProt P05412: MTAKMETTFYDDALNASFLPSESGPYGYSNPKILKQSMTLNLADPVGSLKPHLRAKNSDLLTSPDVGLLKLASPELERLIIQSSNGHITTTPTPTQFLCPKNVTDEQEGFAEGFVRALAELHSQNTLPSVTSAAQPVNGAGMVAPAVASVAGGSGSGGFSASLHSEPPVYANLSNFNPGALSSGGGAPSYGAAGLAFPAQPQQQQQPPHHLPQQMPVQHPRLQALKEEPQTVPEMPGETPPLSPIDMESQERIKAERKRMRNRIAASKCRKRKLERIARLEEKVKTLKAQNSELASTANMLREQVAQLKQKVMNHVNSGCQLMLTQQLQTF

Molecular target: CDC16 (human (endogenous in SH-SY5Y)) (UniProt Q13042)
Test: co-IP; anti-CDC16 antibody on Dynabeads Protein G, total cell lysates, 4 °C overnight, washed with PBS 0.1% Tween-20, Western blot; IgG as negative control; NC and c-Jun OE SH-SY5Y cells

## c-Jun (from UniProt P05412 1-331)
  binding: binds
